One substance from paper PMC5608913 can be followed below.

Sequences of proteins named here, by UniProt entry; tags and fusion partners are left off.
UniProt Q07157: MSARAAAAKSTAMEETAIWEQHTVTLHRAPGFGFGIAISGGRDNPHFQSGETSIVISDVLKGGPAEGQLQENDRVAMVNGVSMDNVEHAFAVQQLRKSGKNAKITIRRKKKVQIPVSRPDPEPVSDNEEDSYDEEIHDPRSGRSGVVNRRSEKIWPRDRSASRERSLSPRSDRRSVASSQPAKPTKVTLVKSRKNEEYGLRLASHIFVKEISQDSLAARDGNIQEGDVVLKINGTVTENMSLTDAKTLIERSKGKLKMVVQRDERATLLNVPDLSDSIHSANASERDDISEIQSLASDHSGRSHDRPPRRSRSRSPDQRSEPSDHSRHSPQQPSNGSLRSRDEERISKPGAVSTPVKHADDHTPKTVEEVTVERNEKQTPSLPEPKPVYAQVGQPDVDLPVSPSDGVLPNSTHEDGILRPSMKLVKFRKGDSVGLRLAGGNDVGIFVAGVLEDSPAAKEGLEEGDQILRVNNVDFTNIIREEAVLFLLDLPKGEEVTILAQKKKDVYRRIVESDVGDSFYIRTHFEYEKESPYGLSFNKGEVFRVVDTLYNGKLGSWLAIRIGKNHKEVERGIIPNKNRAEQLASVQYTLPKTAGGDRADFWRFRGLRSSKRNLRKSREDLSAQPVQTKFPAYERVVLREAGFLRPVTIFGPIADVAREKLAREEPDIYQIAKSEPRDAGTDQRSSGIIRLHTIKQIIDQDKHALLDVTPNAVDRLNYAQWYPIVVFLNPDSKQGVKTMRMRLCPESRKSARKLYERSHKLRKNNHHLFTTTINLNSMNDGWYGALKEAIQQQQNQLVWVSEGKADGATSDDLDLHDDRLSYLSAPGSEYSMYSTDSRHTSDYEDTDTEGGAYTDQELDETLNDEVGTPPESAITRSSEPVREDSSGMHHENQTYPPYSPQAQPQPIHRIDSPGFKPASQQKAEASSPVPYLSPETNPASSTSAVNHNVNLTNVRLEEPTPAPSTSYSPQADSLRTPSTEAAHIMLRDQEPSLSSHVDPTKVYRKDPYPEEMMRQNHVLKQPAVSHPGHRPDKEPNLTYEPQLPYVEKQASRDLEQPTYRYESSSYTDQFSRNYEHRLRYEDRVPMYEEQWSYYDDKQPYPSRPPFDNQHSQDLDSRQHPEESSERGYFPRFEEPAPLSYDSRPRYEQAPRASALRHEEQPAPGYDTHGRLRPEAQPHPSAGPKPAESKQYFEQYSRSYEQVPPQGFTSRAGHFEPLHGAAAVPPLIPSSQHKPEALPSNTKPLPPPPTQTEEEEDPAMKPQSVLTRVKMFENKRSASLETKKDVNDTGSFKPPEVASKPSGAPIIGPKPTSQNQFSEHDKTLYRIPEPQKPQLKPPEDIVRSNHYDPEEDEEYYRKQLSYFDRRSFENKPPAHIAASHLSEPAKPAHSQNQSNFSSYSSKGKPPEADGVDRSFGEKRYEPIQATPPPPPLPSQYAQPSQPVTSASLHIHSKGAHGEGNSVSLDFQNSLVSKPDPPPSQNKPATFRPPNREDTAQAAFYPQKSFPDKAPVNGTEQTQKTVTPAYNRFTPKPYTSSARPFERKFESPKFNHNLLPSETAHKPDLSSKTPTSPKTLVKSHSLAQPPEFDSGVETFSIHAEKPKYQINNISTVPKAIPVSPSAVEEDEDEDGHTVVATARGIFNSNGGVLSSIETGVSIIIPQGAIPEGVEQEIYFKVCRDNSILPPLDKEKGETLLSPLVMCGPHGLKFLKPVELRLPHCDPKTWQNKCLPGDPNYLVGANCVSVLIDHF

The assay addresses T1, endogenous Neph1 (human (endogenous in cultured human podocytes)) (UniProt Q96J84).
T1 sequence: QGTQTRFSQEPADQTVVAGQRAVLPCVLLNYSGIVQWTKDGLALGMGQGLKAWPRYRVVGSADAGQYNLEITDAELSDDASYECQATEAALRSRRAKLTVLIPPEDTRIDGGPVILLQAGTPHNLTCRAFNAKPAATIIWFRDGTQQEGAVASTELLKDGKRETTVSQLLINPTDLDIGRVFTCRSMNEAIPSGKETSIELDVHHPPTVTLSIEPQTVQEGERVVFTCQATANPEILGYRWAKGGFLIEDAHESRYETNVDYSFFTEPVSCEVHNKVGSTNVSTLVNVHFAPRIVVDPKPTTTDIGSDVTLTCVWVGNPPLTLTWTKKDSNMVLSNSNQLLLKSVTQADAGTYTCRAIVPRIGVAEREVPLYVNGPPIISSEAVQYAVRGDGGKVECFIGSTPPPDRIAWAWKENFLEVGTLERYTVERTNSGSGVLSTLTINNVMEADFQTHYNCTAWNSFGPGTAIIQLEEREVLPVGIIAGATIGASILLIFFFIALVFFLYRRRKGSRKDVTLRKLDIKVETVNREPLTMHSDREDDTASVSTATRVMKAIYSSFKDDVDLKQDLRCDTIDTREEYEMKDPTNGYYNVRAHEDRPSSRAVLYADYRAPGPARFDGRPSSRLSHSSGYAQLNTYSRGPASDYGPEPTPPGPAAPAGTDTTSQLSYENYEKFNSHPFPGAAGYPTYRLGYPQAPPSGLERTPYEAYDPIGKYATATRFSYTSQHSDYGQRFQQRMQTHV
As to the kind of experiment: co-IP; cultured human podocytes without or with ISD (1 uM or 5 uM) for more than 24 h; RIPA lysate; immunoprecipitation with Neph1 antibody, blot with ZO-1 antibody.

These are yes or no findings as the source states them, for the method shown. In cells and extracts the contact can be indirect. Some binding calls cover weakened binding; strength is not graded here.

“endogenous ZO-1 (from UniProt Q07157 1-1748)”: the binding result is “binds”.
